Measurements reported in the supplement of paper PMC4604168 (melanoma cell lines).
The other results are listed elsewhere or left out. Single values are uncertain, as repeats are few or missing.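 Imaging used 1,536-well plates; nuclei positive for cleaved PARP by antibody were divided by total DNA-stained nuclei to yield the apoptosis fraction. Doses for screening kept most cells viable, and cell lines differ markedly in resting and induced cleaved-PARP levels.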

System: MZ2-MEL
Assay: cleaved PARP positive nuclei fraction relative to DMSO control; melanoma cells; higher = more apoptosis
Details: library dose: low library concentration; 72 h

| SMILES | cleaved PARP positive nuclei fraction [%] |
| --- | --- |
| O=C(Oc1ccc([N+](=O)[O-])cc1)N1CCC(C(O)(c2ccc3c(c2)OCO3)c2ccc3c(c2)OCO3)CC1 + CC(C)CCN1c2nc(Nc3cc(F)c(O)c(F)c3)ncc2N(C)C(=O)C1C [BID1870] (first compound 1 µM, partner dose 0.2 µM) | 316 |
| CO[C@H]1C[C@@H]2CC[C@@H](C)[C@@](O)(O2)C(=O)C(=O)N2CCCC[C@H]2C(=O)O[C@H]([C@H](C)C[C@@H]2CC[C@@H](OCCO)[C@H](OC)C2)CC(=O)[C@H](C)/C=C(\C)[C@@H](O)[C@@H](OC)C(=O)[C@H](C)C[C@H](C)/C=C/C=C/C=C/1C [everolimus] + Cc1cc(SCc2sc(-c3ccc(C(F)(F)F)c(F)c3)nc2C)ccc1OCC(=O)O [GW0742] (first compound 0.02 µM, partner dose 2 µM) | 131 |
| COc1cc(Nc2ncc(F)c(Nc3ccc4c(n3)NC(=O)C(C)(C)O4)n2)cc(OC)c1OC [Tamatinib] + O=C(Oc1ccc([N+](=O)[O-])cc1)N1CCC(C(O)(c2ccc3c(c2)OCO3)c2ccc3c(c2)OCO3)CC1 [JZL184] (first compound 0.4 µM, partner dose 1 µM) | 85.8 |
| COc1cc2ncnc(Nc3ccc(Oc4ccccc4)cc3)c2cc1OC + O=C(Oc1ccc([N+](=O)[O-])cc1)N1CCC(C(O)(c2ccc3c(c2)OCO3)c2ccc3c(c2)OCO3)CC1 [JZL184] (first compound 2 µM, partner dose 1 µM) | 127 |
| C/C(O)=C(\C#N)C(=O)Nc1cc(Br)ccc1Br + O=C(Oc1ccc([N+](=O)[O-])cc1)N1CCC(C(O)(c2ccc3c(c2)OCO3)c2ccc3c(c2)OCO3)CC1 [JZL184] (first compound 2 µM, partner dose 1 µM) | 159 |
| C/C(O)=C(\C#N)C(=O)Nc1cc(Br)ccc1Br + CC(C)CCN1c2nc(Nc3cc(F)c(O)c(F)c3)ncc2N(C)C(=O)C1C [BID1870] (first compound 2 µM, partner dose 0.2 µM) | 74.3 |
| N#Cc1c(O)c2c(-c3ccc(-c4ccccc4O)cc3)csc2[nH]c1=O + C/C(O)=C(\C#N)C(=O)Nc1cc(Br)ccc1Br [LFM-A13] (first compound 2 µM, partner dose 2 µM) | 63.2 |
| C[C@]12O[C@H](C[C@]1(O)CO)n1c3ccccc3c3c4c(c5c6ccccc6n2c5c31)CNC4=O [Lestaurtinib] + C[C@@H]1CCN(C(=O)CC#N)C[C@@H]1N(C)c1ncnc2[nH]ccc12 [CP690550] (first compound 0.004 µM, partner dose 1 µM) | 107 |
| Cc1ccc(NC(=O)c2cccc(N(C)C)c2)cc1NC(=O)c1ccc(O)cc1 + C/C(O)=C(\C#N)C(=O)Nc1cc(Br)ccc1Br [LFM-A13] (first compound 2 µM, partner dose 2 µM) | 36.9 |
